The test deals with RvPLA2 (acidic phospholipase A2 Daboia siamensis) (Daboia siamensis) (UniProt P31100). Nature of the test: SDS-PAGE under non-reducing and reducing conditions; both purified.

These are yes or no findings as the source states them, for the method shown.

Turning to “RvPLA2 (acidic phospholipase A2 Daboia siamensis) (from UniProt P31100 17-138) (enzyme)”, the binding entry was “no binding”.

For the origin of these results see publication PMC8402394.
